# According to the supplement of paper PMC8728848:
# This is one part of the list.
# Experiments:
# Assay in all cases: glycan array binding signal (z-score within array); higher = stronger binding
# Conditions in all cases: glycan notation: IUPAC condensed, linker removed
# GalNAc(b1-4)GlcNAc = target: GalNAc(b1-4)GlcNAc
# In short: (§1)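 The binding signal is a Z-score computed within each array. Data were drawn from 3228 arrays in the Consortium for Functional Glycomics database, restricted to those with a known protein sequence. Scores were averaged over arrays of the same protein sequence at different concentrations or buffers, and over linkers, and negative values can be taken as non-binding.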
# [1] = target: GalNAc(b1-4)GlcNAc(b1-2)Man
# In short: as §1
# [2] = target: GalNAc(b1-4)GlcNAc(b1-2)Man(a1-3)[GalNAc(b1-4)GlcNAc(b1-2)Man(a1-6)]Man(b1-4)GlcNAc(b1-4)GlcNAc
# In short: as §1
# [3] = target: GalNAc(b1-4)GlcNAc(b1-3)GalNAc(b1-4)GlcNAc
# In short: as §1
# GalNAc(b1-4)GlcNAc6S = target: GalNAc(b1-4)GlcNAc6S
# In short: as §1
# GalNAc(b1-6)GalNAc = target: GalNAc(b1-6)GalNAc
# In short: as §1
# GalNAc3S(b1-4)GlcNAc = target: GalNAc3S(b1-4)GlcNAc
# In short: as §1
# GalNAc3S(b1-4)GlcNAc3S = target: GalNAc3S(b1-4)GlcNAc3S
# In short: as §1
# [4] = target: GalNAc3S(b1-4)[Fuc(a1-3)]GlcNAc
# In short: as §1
# GalNAc4S6S(b1-4)GlcNAc = target: GalNAc4S6S(b1-4)GlcNAc
# In short: as §1
# GalNAc6S(b1-4)GlcNAc = target: GalNAc6S(b1-4)GlcNAc
# In short: as §1
# Glc(a1-4)Glc = target: Glc(a1-4)Glc
# In short: as §1
# [5] = target: Glc(a1-4)Glc(a1-4)Glc(a1-4)Glc
# In short: as §1
# Glc(a1-6)Glc(a1-6)Glc = target: Glc(a1-6)Glc(a1-6)Glc
# In short: as §1
# [6] = target: Glc(a1-6)Glc(a1-6)Glc(a1-6)Glc
# In short: as §1
# Glc(b1-4)Glc = target: Glc(b1-4)Glc
# In short: as §1
# Glc(b1-6)Glc = target: Glc(b1-6)Glc
# In short: as §1
# GlcA(b1-3)Gal = target: GlcA(b1-3)Gal
# In short: as §1
# GlcA(b1-3)GlcNAc = target: GlcA(b1-3)GlcNAc
# In short: as §1
# GlcA(b1-6)Gal = target: GlcA(b1-6)Gal
# In short: as §1
# [7] = target: GlcA3S(b1-3)Gal(b1-4)GlcNAc(b1-2)Man
# In short: as §1
# [8] = target: GlcA3S(b1-3)Gal(b1-4)GlcNAc(b1-3)Gal(b1-4)Glc
# In short: as §1
# [9] = target: GlcNAc(a1-3)Gal(b1-4)GlcNAc
# In short: as §1
# [10] = target: GlcNAc(a1-4)Gal(b1-3)GlcNAc
# In short: as §1
# [11] = target: GlcNAc(a1-4)Gal(b1-4)GalNAc
# In short: as §1
# [12] = target: GlcNAc(a1-4)Gal(b1-4)GlcNAc
# In short: as §1
# [13] = target: GlcNAc(a1-4)Gal(b1-4)GlcNAc(b1-3)Gal(b1-4)Glc
# In short: as §1
# [14] = target: GlcNAc(a1-4)Gal(b1-4)GlcNAc(b1-3)Gal(b1-4)GlcNAc
# In short: as §1
# [15] = target: GlcNAc(a1-4)Gal(b1-4)GlcNAc(b1-3)Gal(b1-4)GlcNAc(b1-3)Gal(b1-4)GlcNAc
# In short: as §1
# [16] = target: GlcNAc(a1-4)Gal(b1-4)GlcNAc(b1-3)Gal(b1-4)[Fuc(a1-3)]GlcNAc(b1-3)Gal(b1-4)[Fuc(a1-3)]GlcNAc
# In short: as §1
# [17] = target: GlcNAc(a1-6)Gal(b1-4)GlcNAc
# In short: as §1
# [18] = target: GlcNAc(b1-2)Gal(b1-3)GalNAc
# In short: as §1
# [19] = target: GlcNAc(b1-2)Man(a1-3)[GlcNAc(b1-2)Man(a1-6)]Man(b1-4)GlcNAc(b1-4)GlcNAc
# In short: as §1
# [20] = target: GlcNAc(b1-2)Man(a1-3)[GlcNAc(b1-2)Man(a1-6)]Man(b1-4)GlcNAc(b1-4)[Fuc(a1-6)]GlcNAc
# In short: as §1
# [21] = target: GlcNAc(b1-2)Man(a1-3)[GlcNAc(b1-4)][GlcNAc(b1-2)Man(a1-6)]Man(b1-4)GlcNAc(b1-4)GlcNAc
# In short: as §1
# [22] = target: GlcNAc(b1-2)Man(a1-3)[GlcNAc(b1-4)][GlcNAc(b1-2)Man(a1-6)]Man(b1-4)GlcNAc(b1-4)[Fuc(a1-6)]GlcNAc
# In short: as §1
# [23] = target: GlcNAc(b1-2)[GlcNAc(b1-4)]Man(a1-3)[GlcNAc(b1-2)Man(a1-6)]Man(b1-4)GlcNAc(b1-4)GlcNAc
# In short: as §1
binder,measurement,setting,value
Epa8 (Candida glabrata) (protein) MGSSHHHHHHSSGLVPRGSHMASSRALSDYPLGCSPLLGTKLTPGLSMELYEYPLDNHGIGPHCWDPAYLNPEYPRTGFESHKLIGTAQNVMSLNFEHRTQDCHVEFSNLPASFNFPDQITLTNFTMLLYGYFKPKESGRYRFHMEADDLLLMNLGAGNAFDCCAHEATRNNLGDYIAYDIWAGTRKDVEVFLEKEVFYPLRLFFNNRDGRAALDFSYYLNGATEPGTDIPELLFSLPDGESCPAYI,glycan array binding signal (z-score),GalNAc(b1-4)GlcNAc,-0.22
same,glycan array binding signal (z-score),[1],-1.45
same,glycan array binding signal (z-score),[2],-0.176
same,glycan array binding signal (z-score),[3],-0.028
same,glycan array binding signal (z-score),GalNAc(b1-4)GlcNAc6S,0.087
same,glycan array binding signal (z-score),GalNAc(b1-6)GalNAc,-0.692
same,glycan array binding signal (z-score),GalNAc3S(b1-4)GlcNAc,-0.238
same,glycan array binding signal (z-score),GalNAc3S(b1-4)GlcNAc3S,1.11
same,glycan array binding signal (z-score),[4],0.176
same,glycan array binding signal (z-score),GalNAc4S6S(b1-4)GlcNAc,1.67
same,glycan array binding signal (z-score),GalNAc6S(b1-4)GlcNAc,-0.651
same,glycan array binding signal (z-score),Glc(a1-4)Glc,-0.398
same,glycan array binding signal (z-score),[5],0.169
same,glycan array binding signal (z-score),Glc(a1-6)Glc(a1-6)Glc,-0.225
same,glycan array binding signal (z-score),[6],0.95
same,glycan array binding signal (z-score),Glc(b1-4)Glc,-1.31
same,glycan array binding signal (z-score),Glc(b1-6)Glc,-0.452
same,glycan array binding signal (z-score),GlcA(b1-3)Gal,0.715
same,glycan array binding signal (z-score),GlcA(b1-3)GlcNAc,0.027
same,glycan array binding signal (z-score),GlcA(b1-6)Gal,0.619
same,glycan array binding signal (z-score),[7],0.306
same,glycan array binding signal (z-score),[8],-0.781
same,glycan array binding signal (z-score),[9],-0.695
same,glycan array binding signal (z-score),[10],-0.625
same,glycan array binding signal (z-score),[11],-0.438
same,glycan array binding signal (z-score),[12],0.361
same,glycan array binding signal (z-score),[13],0.924
same,glycan array binding signal (z-score),[14],1.28
same,glycan array binding signal (z-score),[15],-0.488
same,glycan array binding signal (z-score),[16],0.326
same,glycan array binding signal (z-score),[17],0.258
same,glycan array binding signal (z-score),[18],-0.399
same,glycan array binding signal (z-score),[19],-0.267
same,glycan array binding signal (z-score),[20],-0.052
same,glycan array binding signal (z-score),[21],-0.238
same,glycan array binding signal (z-score),[22],-0.4
same,glycan array binding signal (z-score),[23],-0.001

# 2 neighbouring records from above, for reference:
binder,measurement,setting,value
Epa8 (Candida glabrata) (protein) MGSSHHHHHHSSGLVPRGSHMASSRALSDYPLGCSPLLGTKLTPGLSMELYEYPLDNHGIGPHCWDPAYLNPEYPRTGFESHKLIGTAQNVMSLNFEHRTQDCHVEFSNLPASFNFPDQITLTNFTMLLYGYFKPKESGRYRFHMEADDLLLMNLGAGNAFDCCAHEATRNNLGDYIAYDIWAGTRKDVEVFLEKEVFYPLRLFFNNRDGRAALDFSYYLNGATEPGTDIPELLFSLPDGESCPAYI,glycan array binding signal (z-score),[20],-0.052
same,glycan array binding signal (z-score),[21],-0.238
